The assay has as its target Myc-Tau^P301L (human). In words: co-IP; Myc-Trap beads (Chromotek) on mitochondria isolated from HeLaGAL cells over-producing Myc-tagged proteins, gently lysed with 4.5 g GDN/g protein in IP buffer (0.1 M Tris-HCl, 0.15 M NaCl, phospholipids, protease inhibitors); overnight at 4°C; eluted proteins analysed by western blot. (In general: In western blotting, separated proteins are transferred to a membrane and probed.)

No constants are given. Whether binding was seen depends on the method and setting. In cells and extracts the contact can be indirect. A result given as binding can be weak or reduced; the word gives no strength.

B1: TIM23 (protein, UniProt O14925 1-209)
chain: MEGGGGSGNKTTGGLAGFFGAGGAGYSHADLAGVPLTGMNPLSPYLNVDPRYLVQDTDEFILPTGANKTRGRFELAFFTIGGCCMTGAAFGAMNGLRLGLKETQNMAWSKPRNVQILNMVTRQGALWANTLGSLALLYSAFGVIIEKTRGAEDDLNTVAAGTMTGMLYKCTGGLRGIARGGLTGLTLTSLYALYNNWEHMKGSLLQQSL
On to B1, for which the binding entry is “no binding”.

B2: TOM40 (protein, UniProt O96008 1-361)
chain: MGNVLAASSPPAGPPPPPAPALVGLPPPPPSPPGFTLPPLGGSLGAGTSTSRSSERTPGAATASASGAAEDGACGCLPNPGTFEECHRKCKELFPIQMEGVKLTVNKGLSNHFQVNHTVALSTIGESNYHFGVTYVGTKQLSPTEAFPVLVGDMDNSGSLNAQVIHQLGPGLRSKMAIQTQQSKFVNWQVDGEYRGSDFTAAVTLGNPDVLVGSGILVAHYLQSITPCLALGGELVYHRRPGEEGTVMSLAGKYTLNNWLATVTLGQAGMHATYYHKASDQLQVGVEFEASTRMQDTSVSFGYQLDLPKANLLFKGSVDSNWIVGATLEKKLPPLPLTLALGAFLNHRKNKFQCGFGLTIG
As to B2, the binding entry is reported as “binds”.

The values are drawn from article PMC10357015.
